Laboratory results reported in article PMC7862700.
This is a selection; strong and weak results do not stand in their true shares. At the low end of the ranking the order means little.

What follows are sequences tested against T1, FEV (UniProt Q99581) (assay: DAPPL (digital affinity profiling via proximity ligation, sequencing)). Details: 10 mM Tris-HCl pH 7.5, 50 mM NaCl, 1 mM DTT, 4% glycerol, room temperature, 30 min; GST-TFs on glutathione beads, 16-mer random dsDNA library, 0.1% …; high values mean tight binding; double strand, one strand shown; scale: fold enrichment (6-mer frequency, TF over GST control).
T1 sequence: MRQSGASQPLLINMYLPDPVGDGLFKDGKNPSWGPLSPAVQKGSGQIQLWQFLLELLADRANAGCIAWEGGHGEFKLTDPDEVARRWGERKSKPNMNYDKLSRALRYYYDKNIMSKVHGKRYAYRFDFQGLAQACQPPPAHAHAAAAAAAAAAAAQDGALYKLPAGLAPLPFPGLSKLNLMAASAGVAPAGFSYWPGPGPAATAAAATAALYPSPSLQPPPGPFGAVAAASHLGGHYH

Sequence	binding signal
AATCTA	1.15
CCCCCT	1.18
ATTACT	1.27
TGCGAA	1.14
ATAAAA	1.15
ACGTAT	1.2
CGAGCA	1.16
TGATAA	0.969
TATCTT	1.33
ATTTTG	1.15
TTGCGA	1.08
CGGATC	0.991
TCAATT	1.16
TAAAGG	1.02
GTTGAT	0.995
AGAAAA	1
CAATAC	1.27
GGATCT	0.957
TACCCC	1.07
TGTTGA	1.07

Sequence	binding signal
TTACCT	1.26
AATCCG	2.44
GCCCTA	1.28
ATGAAC	1.26
TATATT	1.39
TTTCCA	1.34
AATATT	1.3
GATAAT	0.99
ACAGCT	1.07
TAAGCC	1.15
CCCTTC	1.47
CTGAAC	1.35
TCTCGT	1.21
CTTGCT	1.25
TTGCTC	1.25
ATCTAT	1.08
ATGCGA	1.17
CTCTCC	1.32
CTAGCA	1.27

A few values from the results shown.
For binding signal, CCCTTC is entered as 1.47
For binding signal, ACAGCT is entered as 1.07
